Results published in publication PMC7019344.
Results are given in words; binding and its absence hold for the method and conditions named. Binding seen in cells or lysates may run through a third protein. Some binding calls cover weakened binding; strength is not graded here.

Chains of the proteins cited; added tags and fusions are not shown.
UniProt P22626: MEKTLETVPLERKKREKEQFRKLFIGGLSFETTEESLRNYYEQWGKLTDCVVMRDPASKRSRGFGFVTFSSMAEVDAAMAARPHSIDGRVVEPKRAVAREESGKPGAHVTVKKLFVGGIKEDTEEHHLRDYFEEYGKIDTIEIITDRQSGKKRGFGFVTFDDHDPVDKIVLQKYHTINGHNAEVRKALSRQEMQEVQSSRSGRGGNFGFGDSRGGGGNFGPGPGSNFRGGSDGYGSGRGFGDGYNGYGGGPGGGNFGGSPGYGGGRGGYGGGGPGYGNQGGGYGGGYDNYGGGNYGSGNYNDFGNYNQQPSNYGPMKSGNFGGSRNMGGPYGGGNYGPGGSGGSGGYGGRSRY
UniProt Q04206: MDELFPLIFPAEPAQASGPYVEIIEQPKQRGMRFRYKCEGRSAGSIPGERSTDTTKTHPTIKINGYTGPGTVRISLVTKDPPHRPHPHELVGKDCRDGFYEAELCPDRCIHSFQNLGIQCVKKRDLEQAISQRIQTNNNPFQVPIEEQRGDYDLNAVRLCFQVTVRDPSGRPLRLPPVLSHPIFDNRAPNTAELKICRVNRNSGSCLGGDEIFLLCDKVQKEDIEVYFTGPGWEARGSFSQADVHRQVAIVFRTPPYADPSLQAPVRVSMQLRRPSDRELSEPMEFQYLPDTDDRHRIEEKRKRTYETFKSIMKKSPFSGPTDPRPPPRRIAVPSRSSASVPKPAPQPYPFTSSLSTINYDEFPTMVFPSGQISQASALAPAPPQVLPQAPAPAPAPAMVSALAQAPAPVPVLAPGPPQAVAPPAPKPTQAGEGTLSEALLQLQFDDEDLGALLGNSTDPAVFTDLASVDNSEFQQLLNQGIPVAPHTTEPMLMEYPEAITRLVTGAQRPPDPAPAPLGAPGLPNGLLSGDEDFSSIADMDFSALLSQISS

Molecular target: heterogeneous nuclear ribonucleoprotein A2/B1 (human (endogenous in Jurkat)) (UniProt P22626)
Assay: co-IP; Jurkat cells lysed in RIPA buffer with protease inhibitors; immunoprecipitated with 2 ug hnRNPA2/B1 antibody (Abcam ab6102) or control rabbit IgG overnight at 4 degrees; protein G beads, washed 4 times with lysis buffer; blotted for p65 and hnRNPA2/B1

binding: binds
Substance: NF-kB p65/RelA (from UniProt Q04206 1-551)
